≈ marks a conversion by molar mass, not a printed value.
Tested on: Mycobacterium tuberculosis
Experiment: Antimycobacterial activity against Mycobacterium bovis BCG assessed as inhibition of visible mycobacterial growth by broth microdilution method
Format: functional
Settings: variant bovis BCG

Compound: CO[C@H]1/C=C/O[C@@]2(C)Oc3c(C)c(O)c4c(O)c(c(/C=N/N5CCN(C)CC5)c(O)c4c3C2=O)NC(=O)/C(C)=C\C=C\[C@H](C)[C@H](O)[C@@H](C)[C@@H](O)[C@@H](C)[C@H](OC(C)=O)[C@@H]1C [RIFAMPIN]
- MIC: 0.1 µg/mL (≈ 0.122 µM)

Source: ChEMBL document CHEMBL4840341, “Voatriafricanines A and B, Trimeric Vobasine-Aspidosperma-Aspidosperma Alkaloids from Voacanga africana” (J Nat Prod, 2021)
